Laboratory results: US20230416363A1
These are yes or no findings as the source states them, for the method shown. Some binding calls cover weakened binding; strength is not graded here.

Amino acid sequences for entries named in this document (tags omitted). Residues count along the entry.
UniProt Q02242, residues 25-167: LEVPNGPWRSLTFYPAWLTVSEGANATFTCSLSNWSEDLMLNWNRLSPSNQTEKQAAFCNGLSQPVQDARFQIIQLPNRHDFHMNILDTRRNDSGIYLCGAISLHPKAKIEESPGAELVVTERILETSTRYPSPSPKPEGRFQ

Target: mPD1 (soluble, ELISA of Examples 20 and 24) (mouse) (UniProt Q02242)
Assay: ELISA

B1: m2C1 (antibody, V domains shown)
VH: QVQLVQSGAEVKKPGASVKVSCKASGHTFTSYYIHWVRQAPGQGLEWMGIINPSGGSTSYAQKFQGRVTMTRDTSTSTVYMELSSLRSEDTAVYYCARDRAYGGAGDYWGQGTLVTVSS
VL: DIQMTQSPSSLSASVGDRVTITCRASRSISSWLAWYQQKPGKAPKLLIYAASSLQSGVPSRFSGSGSGTDFTLTISSLQPEDFATYYCQQSYSIPATFGQGTKVEIK
binding: binds

B2: m2A1 (antibody, V domains shown)
VH: QVQLVQSGAEVKKPGASVKVSCKASGHTFTSYYIHWVRQAPGQGLEWMGIINPSGGSTSYAQKFQGRVTMTRDTSTSTVYMELSSLRSEDTAVYYCARDRAYGGAGDYWGQGTLVTVSS
VL: DIQMTQSPSSLSASVGDRVTITCRASRGISSWLAWYQQKPGKAPKLLIYAASSLQSGVPSRFSGSGSGTDFTLTISSLQPEDFATYYCQQSYSPPWTFGQGTKVEIK
binding: binds

B3: m4D1 (antibody, V domains shown)
VH: QVQLVQSGAEVKKPGASVKVSCKASGHTFTSYYIHWVRQAPGQGLEWMGIINPSGGSTSYAQKFQGRVTMTRDTSTSTVYMELSSLRSEDTAVYYCARDRAYGGAGDYWGQGTLVTVSS
VL: DIQMTQSPSSLSASVGDRVTITCRASQSISAWLAWYQQKPGKAPKLLIYKASSLESGVPSRFSGSGSGTDFTLTISSLQPEDFATYYCQQSYSPPATFGGGTKVEIK
binding: binds

B4: m3A7 (antibody, V domains shown)
VH: QVQLVQSGAEVKKPGASVKVSCKASGHTFTSYYIHWVRQAPGQGLEWMGIINPSGGSTSYAQKFQGRVTMTRDTSTSTVYMELSSLRSEDTAVYYCARDRAYGGAGDYWGQGTLVTVSS
VL: DIQMTQSPSSLSASVGDRVTITCRASRSISNWLAWYQQKPGKAPKLLIYAASSLQSGVPSRFSGSGSGTDFTLTISSLQPEDFATYYCQQSYSAPVTFGQGTKVEIK
binding: binds
